Laboratory results from paper PMC5440049.
No constants are given. Whether binding was seen depends on the method and setting. Some entries that bind do so weakly or less than the wild type.

Amino acid sequences for entries named in this document (tags omitted). A change or cut given only in a name is not applied to a line headed by its entry. Residues count along the entry.
UniProt Q9UGM3, residues 20-2413: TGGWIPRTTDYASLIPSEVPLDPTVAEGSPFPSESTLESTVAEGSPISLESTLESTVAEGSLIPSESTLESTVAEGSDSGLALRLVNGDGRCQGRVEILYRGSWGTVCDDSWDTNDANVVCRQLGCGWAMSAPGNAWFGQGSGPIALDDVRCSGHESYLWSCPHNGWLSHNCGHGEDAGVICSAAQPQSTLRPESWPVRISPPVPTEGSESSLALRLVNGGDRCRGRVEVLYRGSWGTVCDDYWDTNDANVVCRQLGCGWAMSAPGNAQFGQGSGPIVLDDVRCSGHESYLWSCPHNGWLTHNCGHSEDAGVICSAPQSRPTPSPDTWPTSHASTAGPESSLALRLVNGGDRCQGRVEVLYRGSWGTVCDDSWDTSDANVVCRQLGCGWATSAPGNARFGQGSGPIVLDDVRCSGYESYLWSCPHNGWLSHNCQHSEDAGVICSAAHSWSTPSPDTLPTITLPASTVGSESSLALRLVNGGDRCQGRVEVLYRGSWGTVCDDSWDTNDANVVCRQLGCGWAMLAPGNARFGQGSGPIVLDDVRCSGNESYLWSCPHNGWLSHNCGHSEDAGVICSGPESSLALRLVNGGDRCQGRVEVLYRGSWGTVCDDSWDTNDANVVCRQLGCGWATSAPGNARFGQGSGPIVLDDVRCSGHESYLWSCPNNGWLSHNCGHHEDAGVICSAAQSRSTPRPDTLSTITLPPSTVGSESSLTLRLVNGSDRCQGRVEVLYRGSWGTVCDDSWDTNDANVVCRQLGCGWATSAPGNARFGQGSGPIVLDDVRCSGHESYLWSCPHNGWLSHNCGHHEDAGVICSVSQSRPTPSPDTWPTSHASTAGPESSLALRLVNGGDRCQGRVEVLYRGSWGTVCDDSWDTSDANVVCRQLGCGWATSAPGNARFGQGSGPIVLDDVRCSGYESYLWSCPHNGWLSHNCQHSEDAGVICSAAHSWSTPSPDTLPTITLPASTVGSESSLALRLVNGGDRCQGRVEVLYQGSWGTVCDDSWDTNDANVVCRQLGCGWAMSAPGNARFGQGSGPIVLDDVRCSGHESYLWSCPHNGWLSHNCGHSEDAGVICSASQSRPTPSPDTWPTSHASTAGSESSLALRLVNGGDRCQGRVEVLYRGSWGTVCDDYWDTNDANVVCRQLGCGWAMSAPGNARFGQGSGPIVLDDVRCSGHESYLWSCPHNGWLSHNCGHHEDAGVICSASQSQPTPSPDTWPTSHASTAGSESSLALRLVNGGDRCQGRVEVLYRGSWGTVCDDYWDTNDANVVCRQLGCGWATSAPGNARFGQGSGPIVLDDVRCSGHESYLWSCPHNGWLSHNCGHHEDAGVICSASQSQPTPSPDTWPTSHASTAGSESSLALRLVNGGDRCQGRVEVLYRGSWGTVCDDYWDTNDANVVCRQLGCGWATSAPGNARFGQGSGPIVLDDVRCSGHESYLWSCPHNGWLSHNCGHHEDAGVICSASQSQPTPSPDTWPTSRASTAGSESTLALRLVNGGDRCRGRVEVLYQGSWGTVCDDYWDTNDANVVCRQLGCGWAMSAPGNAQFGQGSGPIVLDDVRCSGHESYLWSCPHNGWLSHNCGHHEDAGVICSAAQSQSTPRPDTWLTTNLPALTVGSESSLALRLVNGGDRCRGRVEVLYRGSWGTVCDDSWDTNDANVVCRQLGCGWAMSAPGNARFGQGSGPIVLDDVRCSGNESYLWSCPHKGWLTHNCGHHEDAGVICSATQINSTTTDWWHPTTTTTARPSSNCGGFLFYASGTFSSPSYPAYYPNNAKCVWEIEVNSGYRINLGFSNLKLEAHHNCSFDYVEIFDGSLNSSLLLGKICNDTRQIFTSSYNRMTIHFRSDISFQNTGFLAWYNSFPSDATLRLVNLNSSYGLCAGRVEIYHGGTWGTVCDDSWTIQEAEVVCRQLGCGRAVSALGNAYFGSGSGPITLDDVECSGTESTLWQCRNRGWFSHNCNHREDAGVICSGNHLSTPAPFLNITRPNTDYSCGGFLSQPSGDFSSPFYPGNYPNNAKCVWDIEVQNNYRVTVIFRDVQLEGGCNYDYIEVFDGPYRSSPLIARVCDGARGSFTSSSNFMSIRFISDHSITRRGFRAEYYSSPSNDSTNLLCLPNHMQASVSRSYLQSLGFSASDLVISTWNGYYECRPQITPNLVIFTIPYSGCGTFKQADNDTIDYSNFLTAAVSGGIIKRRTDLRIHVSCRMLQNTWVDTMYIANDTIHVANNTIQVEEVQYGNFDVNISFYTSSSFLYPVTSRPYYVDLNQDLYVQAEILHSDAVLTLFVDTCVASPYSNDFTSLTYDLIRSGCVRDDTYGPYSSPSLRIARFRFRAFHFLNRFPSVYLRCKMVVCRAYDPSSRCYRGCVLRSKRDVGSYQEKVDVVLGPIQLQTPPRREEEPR

Biological target: DMBT1 (Deleted in Malignant Brain Tumors 1) purified from human saliva (human (endogenous in saliva)) (UniProt Q9UGM3)
Test: far-Western, overlay or dot blot; dot-immunoblot: 2 ul DMBT1 in PBS (400 ng/ul and serial dilutions) spotted on nitrocellulose, blocked with 5% BSA, incubated with undiluted pili-containing extract of PAO1 for 40 min at room temperature, washed 5 times with PBS, probed with anti-PilA antibody; only the target purified

B1: pili extracted from P. aeruginosa strain PAO1 (type IV pili, polymer of the PilA major pilin subunit) (protein, UniProt P04739 7-149)
chain: FTLIELMIVVAIIGILAAIAIPQYQNYVARSEGASALATINPLKTTVEESLSRGIAGSKIKIGTTASTATETYVGVEPDANKLGVIAVAIEDSGAGDITFTFQTGTSSPKNATKVITLNRTADGVWACKSTQDPMFTPKGCDN
B1 was tested, and the binding was “binds”.
